This passage reports binding results from paper PMC9287350.

Sequences of proteins named here, by UniProt entry; tags and fusion partners are left off.
UniProt Q15022: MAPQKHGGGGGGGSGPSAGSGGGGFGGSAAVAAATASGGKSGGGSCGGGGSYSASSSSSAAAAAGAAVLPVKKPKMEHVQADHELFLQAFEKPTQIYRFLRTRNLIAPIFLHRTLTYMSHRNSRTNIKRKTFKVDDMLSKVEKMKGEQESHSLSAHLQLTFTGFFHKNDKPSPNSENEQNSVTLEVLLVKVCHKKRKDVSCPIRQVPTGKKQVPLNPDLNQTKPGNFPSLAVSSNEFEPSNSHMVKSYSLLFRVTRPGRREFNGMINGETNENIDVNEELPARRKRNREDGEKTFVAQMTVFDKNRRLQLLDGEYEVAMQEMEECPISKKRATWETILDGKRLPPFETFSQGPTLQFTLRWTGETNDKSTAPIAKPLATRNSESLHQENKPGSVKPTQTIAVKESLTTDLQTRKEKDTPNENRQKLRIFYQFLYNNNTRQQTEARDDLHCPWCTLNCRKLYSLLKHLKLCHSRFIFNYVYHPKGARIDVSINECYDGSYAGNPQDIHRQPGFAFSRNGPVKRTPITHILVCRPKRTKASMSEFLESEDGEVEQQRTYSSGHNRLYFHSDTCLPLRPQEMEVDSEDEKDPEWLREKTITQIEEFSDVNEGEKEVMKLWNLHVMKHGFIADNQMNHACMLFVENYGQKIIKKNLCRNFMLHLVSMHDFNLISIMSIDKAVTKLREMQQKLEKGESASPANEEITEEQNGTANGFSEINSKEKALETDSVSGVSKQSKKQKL
UniProt Q13547: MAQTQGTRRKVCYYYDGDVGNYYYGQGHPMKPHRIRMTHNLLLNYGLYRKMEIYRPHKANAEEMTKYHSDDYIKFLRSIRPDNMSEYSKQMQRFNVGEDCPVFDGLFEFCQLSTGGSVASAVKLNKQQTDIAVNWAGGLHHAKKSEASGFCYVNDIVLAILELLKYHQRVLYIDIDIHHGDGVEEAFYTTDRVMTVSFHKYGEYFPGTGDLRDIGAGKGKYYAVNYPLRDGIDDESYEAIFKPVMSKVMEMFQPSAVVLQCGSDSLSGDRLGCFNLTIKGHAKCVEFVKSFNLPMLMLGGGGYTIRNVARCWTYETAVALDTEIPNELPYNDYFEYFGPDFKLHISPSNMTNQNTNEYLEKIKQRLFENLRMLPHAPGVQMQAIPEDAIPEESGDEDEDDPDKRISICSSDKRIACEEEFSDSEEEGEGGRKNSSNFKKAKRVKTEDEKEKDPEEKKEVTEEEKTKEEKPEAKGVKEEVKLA

The assay addresses SUZ12 (human (endogenous in human T cells)) (UniProt Q15022). Description: co-IP; endogenous proteins in lysates of human T cells (hypoxia); IP buffer 20 mM Tris pH 7.5, 100 mM NaCl, 0.5% NP-40, 0.5 mM EDTA; precipitated with HIF1α antibody, SUZ12 antibody or normal rabbit IgG, protein A-agarose; immunoblot. For orientation: Immunoblotting shows a protein as a band on a membrane.

These are yes or no findings as the source states them, for the method shown. Binding seen in cells or lysates may run through a third protein. Some binding calls cover weakened binding; strength is not graded here.

With HDAC1 (from UniProt Q13547 1-482), the binding entry is “binds”.
